Source: PubChem BioAssay AID1259415 (National Center for Advancing Translational Sciences (NCATS), 2018)
About 18,000 (4.4%) of roughly 410,000 compounds were called active. The inconclusive results got no clear call from the source; some entries with a clear call stand among them for comparison. No stated cut-off is given here; in the data, active means activity change below about -60%; inconclusive means no clear call, values can overlap the other calls; inactive means above about -39%.

experiment: qHTS Assay for inhibitors of the human cytomegalovirus (HCMV); details: HFF cells, HCMV-luciferase reporter, 72 h; at 57.5 µM; active compounds read low
Procedure, shortened: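 HFF cells seeded 16 h at 37C, treated with compounds, infected with luciferase-reporter HCMV at MOI 1 PFU/cell; luciferase read at 72 h post infection, normalized to buffer-only and Salinomycin controls.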
On the % scale 0 is the no-effect control and ±100 the full control effect.

Compound	activity change, negative = inhibition
CCOC(=O)C1=C(O)C(=O)N(c2ccc(S(N)(=O)=O)cc2)C1c1ccc(Br)cc1 (stereo unspecified)	inconclusive: -43.5%
CCC(C)N(C(=O)c1csnn1)C(C(=O)NC1CCCC1)c1ccccc1F (stereo unspecified)	inactive: 8.49%
CCOc1ccccc1NC(=O)NCCC1=CCCCC1	inconclusive: -44.4%
CC[n+]1cccc(-c2nc3ccccc3s2)c1	inconclusive: -59.2%
CNC(=O)c1cccc(NC(=O)c2cc(-c3ccccc3)nc3c2cnn3C(C)C)c1	inactive: -7.81%
CC(C)(CNC(=O)c1sc2cc(F)ccc2c1Cl)N1CCOCC1	inconclusive: -55.1%
CCOC(=O)Cc1csc(NC(=O)c2cccc([N+](=O)[O-])c2)n1	inconclusive: -47.8%
CCCn1c(NC(=O)c2ccc(Cl)c(S(=O)(=O)N3CCCC3)c2)nc2ccccc21	active: -63.3%
CC(NC(=S)NC1CCC(C(C)(C)C)CC1)c1ccccc1 (stereo unspecified)	active: -81.7%
N#Cc1ccccc1Oc1ccccc1C=O	inconclusive: -49.9%
COc1ccc(S(=O)(=O)N2CCN(C(=O)COc3ccc4c(C)cc(=O)oc4c3)CC2)cc1	inconclusive: -44.9%
C/C(=N\NC(=O)c1cc2c(s1)CCC(C)C2)c1ccncc1 (stereo unspecified)	inconclusive: -43.3%
COc1ccc(Cn2cnc3c(NS(C)(=O)=O)c(C)c(C)cc32)cc1	inactive: 98.1%
O=C1Nc2ccccc2NC(c2cccc(Br)c2)=C1N(C(=O)C(=O)c1cccs1)c1ccccc1	active: -88.2%
Cc1cc(C(=O)N2CCOCC2)ccc1[N+](=O)[O-]	inconclusive: -46.7%
COc1cccc(N2CCN(C(=O)Cn3cnc4onc(-c5ccc(F)cc5)c4c3=O)CC2)c1	inactive: -27.3%
Nc1nc(Cl)cc(N2CCC(c3cc(-c4ccc(Cl)cc4Cl)n[nH]3)CC2)n1	active: -100%
O=C(c1ccc(C(F)(F)F)n(Cc2ccc(Cl)cc2)c1=O)N1CCOCC1	inconclusive: -45.7%
CCc1cccc(CC)c1-n1c(SCn2nnc3ccccc3c2=O)nnc1-c1cccnc1	inconclusive: -54.1%
N#Cc1ccccc1/C=N/Nc1nc(-c2ccccc2)c2cc(Cl)ccc2n1	inconclusive: -48.3%
COc1ccc(CNc2oc(COc3cccc(C)c3)nc2C#N)cc1	inactive: 15%
Cc1ccc(Cn2cnc3ccccc32)cc1	inactive: 29.9%

Compound	activity change, negative = inhibition
Cn1cc(S(=O)(=O)N2CCCC2)cc1C(=O)Nc1ccc(C(F)(F)F)cc1	inconclusive: -54.3%
Cc1cc(Cl)ccc1OCC(=O)Nc1cccc(S(=O)(=O)N2CCCC2)c1	inconclusive: -51.3%
Cc1nc(N2CCN(Cc3ccccc3)CC2)nc2c1CCC2	inconclusive: -46.4%
COc1ccc(N2CCN(C(=O)COC(=O)c3ccc(CSC)o3)CC2)cc1	inactive: -16.5%
CCN(CC)c1ccc(/C=N/NC(=O)Cc2cccs2)c(O)c1	active: -99.9%
CCOC(=O)N1CCC(NC(=O)c2cnc3n(c2=O)CCS3)CC1	active: -60.7%
Oc1c(CN2CCN(c3ccccc3)CC2)cc(Br)c2cccnc12	active: -70.3%
COc1cc(-c2noc(-c3ccc(NC4CCCCC4)c([N+](=O)[O-])c3)n2)cc(OC)c1OC	inactive: -1.14%
Cc1ccc(NC(=O)CSc2nc(-c3cccs3)cc(C(F)(F)F)n2)cc1C	inactive: -19.2%
Cc1cccc(OCC(=O)NNc2c3ccccc3nc3ccccc23)c1	active: -96.8%
CC1=C(C(=O)Nc2cc(C(=O)N3CCN(c4cccc(C)c4)C(C)C3)ccc2C)SCCO1 (stereo unspecified)	inconclusive: -49.7%
CCCCCn1c(=N)c(S(=O)(=O)c2ccccc2)cc2c(=O)n3cccc(C)c3nc21	inactive: 7.84%
CCOc1ccccc1CN1CCNC(=O)C1CC(=O)NC1CCCCCCC1 (stereo unspecified)	active: -62.1%
Cc1cccc2sc(N(Cc3cccnc3)C(=O)Cc3ccccc3)nc12	inconclusive: -57.9%
CCOc1ccc(C(=O)c2oc3ccccc3c2NC(=O)c2cc(-c3ccccc3)on2)cc1	inactive: -17%
Cc1nc(N2CCN(S(=O)(=O)c3cccs3)CC2)c2c(-c3ccccc3)c(C)sc2n1	inconclusive: -49.2%
Cc1cc(=O)n2c(C(=O)Nc3ccc(F)c(Cl)c3)c(C(=O)Nc3cccc(C)c3C)sc2n1	inactive: 6.45%
Cc1ccc(N=C(NO)c2nonc2N)c(C)c1	inactive: -37.9%
C/C(=N/Oc1nc(C)cc(C)n1)c1ccc(Cl)cc1Cl	active: -61.1%
CC(=O)Nc1ccc(/C=N/Nc2ccc(C(=O)c3c(C)cc4ccccn34)cc2[N+](=O)[O-])cc1	inconclusive: -40.7%
CSc1cccc(N2C(=O)N(CC(=O)NCc3ccccc3Cl)c3ccccc3S2(=O)=O)c1	inactive: -22.6%
CN(Cc1ccccc1)C(=O)C(=O)c1c[nH]c2ccccc12	active: -70.4%

Laid out differently: results already given
Compound | activity change, negative = inhibition
Cc1ccc(NC(=O)CSc2nc(-c3cccs3)cc(C(F)(F)F)n2)cc1C | inactive: -19.2%
Cc1cccc(OCC(=O)NNc2c3ccccc3nc3ccccc23)c1 | active: -96.8%
CC1=C(C(=O)Nc2cc(C(=O)N3CCN(c4cccc(C)c4)C(C)C3)ccc2C)SCCO1 (stereo unspecified) | inconclusive: -49.7%

(continued)

Compound	activity change, negative = inhibition
CCCCn1c(=N)n(CC(=O)c2ccc([N+](=O)[O-])cc2)c2ccccc21	active: -104%
Cc1cc(C)nc(Sc2ccc(/C=C(\C#N)C(=O)Nc3ccccc3)o2)n1	inactive: 4.38%
O=C(c1ccc2c(c1)N(Cc1cccc(Cl)c1)C(=O)c1ccccc1S2(=O)=O)N1CCC(Cc2ccccc2)CC1	inconclusive: -54.6%
Cc1cc(=O)c(C(=O)O)c(C)n1-c1ccccc1	active: -62.1%
Cc1nc(N2CCN(c3ccccn3)CC2)c2c(C)c(C(=O)Nc3c(F)cc(F)cc3Br)sc2n1	inconclusive: -43.8%
C[N+](C)(C)CCCNC(=O)c1ccc(/C=N/O)nc1	inactive: -1.46%
CC1CC(Nc2ccccc2N)=CC(=O)O1 (stereo unspecified)	inactive: 11.7%
O=C(C1=C[C@@H](c2ccc(Br)cc2)C[C@@H](OCCCCO)O1)N1CCN(Cc2ccccc2)CC1	active: -94.3%
CCOC(=O)C1=C(c2ccccc2)Nc2ncnn2C1c1ccc(Cl)cc1 (stereo unspecified)	active: -113%
CC(C)(C)c1ccc(SCCc2ccncc2)cc1	inconclusive: -40.1%
CC(C)(C)[C@H]1COC(=O)[C@H](Cc2ccc(F)cc2)CC/C=C/C[C@@H](CC(=O)N[C@H](CO)Cc2ccccc2)C(=O)N1	inactive: -0.603%
CCOC(=O)n1c(=O)n(Cc2ccccc2)c2ccccc21	inconclusive: -49.8%
O=C(Nc1ccccc1C(=O)O)c1cc(S(=O)(=O)N2CCOCC2)c(Br)s1	inactive: 15.3%
Cc1ccccc1N1CCN(C(=S)c2ccc(-c3ccc([N+](=O)[O-])cc3)o2)CC1	inconclusive: -56.7%
CCOc1ccccc1-c1cnc(NC)cn1	inconclusive: -57.5%
CCC(C)NC(=O)C1CCN(S(=O)(=O)c2cccc3cccnc23)CC1 (stereo unspecified)	inconclusive: -56.5%
CC(=O)Nc1ccc(S(=O)(=O)Nc2cccc(-c3nc4ccccc4o3)c2)cc1	inactive: -21.5%
CC(C)OC(=O)c1cc2ccccc2oc1=O	inconclusive: -58.3%
Cc1c(C(=O)NC2CCCc3ccccc32)cccc1[N+](=O)[O-] (stereo unspecified)	inactive: -35.7%
O=S1(=O)CC(N2CCN(Cc3ccccc3F)CC2)CN1Cc1cn(Cc2cccc(C(F)(F)F)c2)nn1 (stereo unspecified)	inconclusive: -44%
COc1cc(NC(=S)NC(=O)c2ccc(C)cc2C)ccc1NC(=O)c1cccs1	inconclusive: -49.4%
O=c1[nH]ncc(N2CCN(C(c3ccccc3)c3ccccc3)CC2)c1Cl	inconclusive: -56.7%

Compound	activity change, negative = inhibition
CCC(c1nnnn1Cc1ccccc1)N1CCC(n2c(=O)[nH]c3ccccc32)CC1 (stereo unspecified)	active: -60.6%
O=C1C(=Cc2ccco2)CCC1=Cc1ccco1	inconclusive: -52.9%
Cc1csc(=O)n1CC(=O)OCC(=O)c1c(N)n(CC(C)C)c(=O)n(C)c1=O	inconclusive: -53.4%
CCCN(C(=O)c1cc2c(s1)-c1c(C)cccc1OC2)c1ccc(OCC)cc1	inactive: 7.31%
CCOc1ccccc1-n1c(O)c(C=Nc2ccc(N(CC)CC)cc2)c(=O)[nH]c1=O	active: -86.9%
COc1ccc(-n2cc(CNCCc3nc(C)cc(C)n3)c(-c3ccccc3Cl)n2)cc1	inconclusive: -46%
COc1ccccc1Cc1c(-c2ccc(OC)c(OC)c2)nc2ccc(Br)cn12	inconclusive: -47.4%
CCOC(=O)c1cnc2ccc(OC)cc2c1Nc1ccc2c(c1)OCCO2	inconclusive: -52%
CC1(C)CC(=O)C(N=Nc2ccc(OC(F)F)cc2)=C(O)C1	inconclusive: -40.8%
CSc1ncccc1C(=O)OCCCC(=O)c1ccc(F)cc1	inactive: -38.4%
O=C(/C=C/c1cn(CC(O)CN2CCCCCC2)c2ccccc12)c1ccc(Br)cc1 (stereo unspecified)	inactive: -24.1%
CN(C)c1ccc(NC(=O)CCCCCn2nnc3ccccc3c2=O)cc1	inactive: -2.33%
CN1CCN(c2ccc(CNC(=O)C3Cc4c(-c5ccccc5Oc5ccccc5)ccnc4O3)cc2)CC1 (stereo unspecified)	inconclusive: -48.5%
Cc1ccc(NC(=O)C(Cc2ccccc2)n2cccc2)cc1C (stereo unspecified)	inconclusive: -41.1%
CC(Sc1nnnn1-c1ccc(O)cc1)C(=O)NC1CCCCC1C (stereo unspecified)	inactive: -23.2%
CC(=O)c1cccc(NS(=O)(=O)c2ccc(N/C=C/C(=O)c3ccc(F)cc3)cc2)c1	inconclusive: -54.4%
COc1ccc(NC(=O)c2oc3ccc(S(=O)(=O)N(C)C4CCCCC4)cc3c2C)cc1	active: -72.3%
NC(=S)N/N=C/c1ccccc1OCCSc1ccc(Cl)cc1	active: -69.2%
O=c1[nH]cnc2scc(C3COc4ccccc4O3)c12 (stereo unspecified)	inactive: 37.2%
COc1ccc(C(=O)COC(=O)CCN2C(=O)C3CC=CCC3C2=O)c(OC)c1 (stereo unspecified)	inconclusive: -53.7%
